Results published in patent US20180352814A1 (priority 2015, published 2018).
Where two headings read alike, the source gives them in different places. Some entries share one result that the patent states for a list of compounds. At least one structure is not confirmed: it was looked up by name or label, or the drawing left a doubt.

Assays:
[1] = system: rice blast fungus (Magnaporthe grisea); format: in vivo; details: 500 ppm foliage spray; rice cultivar HINOHIKARI; contact with infected seedling for 6 days
[2] = system: wheat leaf blotch fungus (Septoria tritici); assay: Test Example 7: Control Test on Wheat Leaf Blotch (Septoria tritici), spraying after inoculation; format: in vivo; details: 200 ppm foliage spray 3 days after inoculation; wheat cultivar APOGEE
[3] = system: wheat leaf blotch fungus (Septoria tritici); assay: Test Example 3: Antifungal Test Against Wheat Leaf Blotch (Septoria tritici), titer plate; format: cell-based; details: 1 μL of 1,500 ppm dimethyl sulfoxide dilution + 150 μL PDB medium with spores; 18° C. for 5 days
[4] = system: wheat leaf blotch fungus (Septoria tritici); assay: Test Example 18: Control Test on Wheat Leaf Blotch (Septoria tritici); format: in vivo; details: 500 ppm foliage spray; wheat cultivar APOGEE; inoculated 4 days after spraying
[5] = system: barley net blotch fungus (Pyrenophora teres); assay: Test Example 12: Control Test on Barley Net Blotch (Pyrenophora teres); format: in vivo; details: 200 ppm foliage spray; barley cultivar NISHINOHOSHI; inoculated 2 days after spraying
[6] = system: soybean powdery mildew fungus (Microsphaera diffusa); assay: Test Example 13: Control Test on Soybean Powdery Mildew (Microsphaera diffusa), spraying after inoculation; format: in vivo; details: 200 ppm foliage spray after inoculation; soybean KUROSENGOKU; assessed 9 days after spraying
[7] = system: second instar larvae of the diamondback moth; assay: Reference Test Example 1: mortality of diamondback moth larvae on sprayed cabbage leaves; format: in vivo; details: 500 ppm spray on cabbage seedling leaves; five second instar larvae; counted after 5 days
[8] = system: soybean powdery mildew fungus (Microsphaera diffusa); assay: Test Example 14: Control Test on Soybean Powdery Mildew (Microsphaera diffusa), spraying before inoculation; format: in vivo; details: 200 ppm foliage spray; soybean KUROSENGOKU; inoculated 1 day after spraying
[9] = system: rice blast fungus (Magnaporthe grisea); format: in vivo; details: 200 ppm foliage spray; rice cultivar HINOHIKARI; contact with infected seedling for 6 days
[10] = system: wheat rust fungus (Puccinia recondita); assay: Test Example 17: Control Test on Wheat Rust (Puccinia recondita); format: in vivo; details: 500 ppm foliage spray; wheat cultivar SHIROGANE; inoculated 5 days after spraying
[11] = system: soybean anthracnose fungus (Colletotrichum Truncatum); format: cell-based; details: 1 μL of 1,500 ppm dimethyl sulfoxide dilution + 150 μL PDB medium with spores; 18° C. for 4 days
[12] = system: wheat rust fungus (Puccinia recondita); assay: Test Example 8: Control Test on Wheat Rust (Puccinia recondita); format: in vivo; details: 200 ppm foliage spray; wheat cultivar SHIROGANE; inoculated 5 days after spraying
[13] = system: wheat leaf blotch fungus (Septoria tritici); assay: Test Example 6: Control Test on Wheat Leaf Blotch (Septoria tritici); format: in vivo; details: 200 ppm foliage spray; wheat cultivar APOGEE; inoculated 4 days after spraying
[14] = system: barley net blotch fungus (Pyrenophora teres); assay: Test Example 11: Control Test on Barley Net Blotch (Pyrenophora teres); format: in vivo; details: 500 ppm foliage spray; barley cultivar NISHINOHOSHI; inoculated 2 days after spraying

Row | Structure (SMILES) | degree of growth (absorbance at 550 nm) in treated area relative to that in a non-treated area [3] | area of lesion spots on the treated wheat relative to that on a non-treated wheat [4] | area of lesion spots on the treated soybean relative to that on a non-treated soybean [8] | area of lesion spots on the treated wheat relative to that on a non-treated wheat [10] | other results
1 | CCOCCNC(=O)Oc1ccc(-c2noc(C(F)(F)F)n2)cc1 [compound 9] | – | – | – | – | lesion areas on the treated rice with respect to the lesion area on the non-treated rice [1]: ≤ 30%
2 | C#CCN(C)C(=O)Oc1ccc(-c2noc(C(F)(F)F)n2)cc1 [compound 10] | ≤ 40% | ≤ 30% | – | – | lesion areas on the treated rice with respect to the lesion area on the non-treated rice [1]: ≤ 30%; area of lesion spots on the treated wheat relative to that on a non-treated wheat [2]: ≤ 30%; area of lesion spots on the treated barley relative to that on a non-treated barley [5]: ≤ 30%
3 | COCCN(C)C(=O)Oc1ccc(-c2noc(C(F)(F)F)n2)cc1F [compound 11] | – | – | ≤ 30% | – | area of lesion spots on the treated soybean relative to that on a non-treated soybean [6]: ≤ 30%; mortality [7]: more than 80%
4 | CN(CC#N)C(=O)Oc1ccc(-c2noc(C(F)(F)F)n2)cc1F [compound 12] | ≤ 40% | ≤ 30% | ≤ 30% | – | –
5 | CN(CCC#N)C(=O)Oc1ccc(-c2noc(C(F)(F)F)n2)cc1F [compound 13] | ≤ 40% | – | ≤ 30% | – | lesion areas on the treated rice with respect to the lesion area on the non-treated rice [9]: ≤ 30%
6 | CN(C(=O)Oc1ccc(-c2noc(C(F)(F)F)n2)cc1F)C1CC1 [compound 15] | – | – | – | ≤ 30% | degree of growth (absorbance at 550 nm) in treated area relative to that in a non-treated area [11]: ≤ 30%
7 | COCCN(C)C(=O)Oc1ccc(-c2noc(C(F)(F)F)n2)c(F)c1 [compound 16] | – | – | ≤ 30% | – | area of lesion spots on the treated soybean relative to that on a non-treated soybean [6]: ≤ 30%; area of lesion spots on the treated wheat relative to that on a non-treated wheat [12]: ≤ 30%
8 | CN(C(=O)Oc1ccc(-c2noc(C(F)(F)F)n2)c(F)c1)C1CC1 [compound 18] | – | – | – | ≤ 30% | –
9 | COCCN(C)C(=O)Oc1ccc(-c2noc(C(F)(F)F)n2)cc1C [compound 19] | – | – | ≤ 30% | ≤ 30% | –
10 | COCCN(C)C(=O)Oc1cccc(-c2noc(C(F)(F)F)n2)c1 [compound 20] | – | – | ≤ 30% | – | lesion areas on the treated rice with respect to the lesion area on the non-treated rice [1]: ≤ 30%; area of lesion spots on the treated wheat relative to that on a non-treated wheat [13]: ≤ 30%
11 | COCCNC(=O)Oc1ccc(-c2noc(C(F)(F)F)n2)cc1 [compound 22] | ≤ 40% | – | – | – | –
12 | COCCN(C)C(=O)Nc1ccc(-c2noc(C(F)(F)F)n2)cc1 [compound 29] | – | – | ≤ 30% | – | –
13 | CN(CC#N)C(=O)Nc1ccc(-c2noc(C(F)(F)F)n2)cc1 [compound 30] | ≤ 40% | ≤ 30% | – | ≤ 30% | area of lesion spots on the treated wheat relative to that on a non-treated wheat [12]: ≤ 30%
14 | CN(CCC#N)C(=O)Nc1ccc(-c2noc(C(F)(F)F)n2)cc1 [compound 31] | – | ≤ 30% | – | – | area of lesion spots on the treated wheat relative to that on a non-treated wheat [12]: ≤ 30%; mortality [7]: more than 80%; area of lesion spots on the treated wheat relative to that on a non-treated wheat [13]: ≤ 30%
15 | COCC(=O)Nc1ccc(-c2noc(C(F)(F)F)n2)cc1 [compound 33] | ≤ 40% | – | – | ≤ 30% | area of lesion spots on the treated wheat relative to that on a non-treated wheat [13]: ≤ 30%
16 | O=C(Nc1ccc(-c2noc(C(F)(F)F)n2)cc1)C1CCCCC1 [compound 34] | – | ≤ 30% | – | – | –
17 | O=C(Nc1ccc(-c2noc(C(F)(F)F)n2)cc1)C1CC1 [compound 35] | ≤ 40% | ≤ 30% | ≤ 30% | ≤ 30% | area of lesion spots on the treated soybean relative to that on a non-treated soybean [6]: ≤ 30%; area of lesion spots on the treated wheat relative to that on a non-treated wheat [12]: ≤ 30%; area of lesion spots on the treated wheat relative to that on a non-treated wheat [13]: ≤ 30%
18 | N#CC1(C(=O)Nc2ccc(-c3noc(C(F)(F)F)n3)cc2)CC1 [compound 36] | ≤ 40% | ≤ 30% | – | ≤ 30% | lesion areas on the treated rice with respect to the lesion area on the non-treated rice [1]: ≤ 30%; area of lesion spots on the treated wheat relative to that on a non-treated wheat [12]: ≤ 30%; area of lesion spots on the treated barley relative to that on a non-treated barley [14]: ≤ 30%; area of lesion spots on the treated wheat relative to that on a non-treated wheat [13]: ≤ 30%; degree of growth (absorbance at 550 nm) in treated area relative to that in a non-treated area [11]: ≤ 30%; lesion areas on the treated rice with respect to the lesion area on the non-treated rice [9]: ≤ 30%; area of lesion spots on the treated barley relative to that on a non-treated barley [5]: ≤ 30%
19 | CC1(C(=O)Nc2ccc(-c3noc(C(F)(F)F)n3)cc2)CCCCC1 [compound 39] | ≤ 40% | – | – | – | –
20 | CC1(C(=O)Nc2ccc(-c3noc(C(F)(F)F)n3)cc2)CCC1 [compound 40] | ≤ 40% | ≤ 30% | – | ≤ 30% | lesion areas on the treated rice with respect to the lesion area on the non-treated rice [1]: ≤ 30%
21 | CC1(C(=O)Nc2ccc(-c3noc(C(F)(F)F)n3)cc2)CC1 [compound 41] | ≤ 40% | – | – | – | degree of growth (absorbance at 550 nm) in treated area relative to that in a non-treated area [11]: ≤ 30%
22 | COc1ccc(C(=O)Oc2ccc(-c3noc(C(F)(F)F)n3)cc2)cc1 [compound 42] | – | ≤ 30% | – | – | area of lesion spots on the treated wheat relative to that on a non-treated wheat [13]: ≤ 30%; area of lesion spots on the treated barley relative to that on a non-treated barley [5]: ≤ 30%
23 | COc1cccc(C(=O)Oc2ccc(-c3noc(C(F)(F)F)n3)cc2)c1 [compound 43] | – | ≤ 30% | – | – | –
24 | O=C(Oc1ccc(-c2noc(C(F)(F)F)n2)cc1)C1CCCCC1 [compound 44] | ≤ 40% | ≤ 30% | – | – | area of lesion spots on the treated wheat relative to that on a non-treated wheat [13]: ≤ 30%; lesion areas on the treated rice with respect to the lesion area on the non-treated rice [9]: ≤ 30%; area of lesion spots on the treated barley relative to that on a non-treated barley [5]: ≤ 30%
